Measurements published in US12227488B2, “Small molecule degraders of Helios and methods of use” (DANA-FARBER CANCER INSTITUTE, INC., priority 2018, dated 2025).
Some results were stated once for a whole list of compounds, not compound by compound.

Amino acid sequences for entries named in this document (tags omitted). A change or cut given only in a name is not applied to a line headed by its entry.
UniProt Q96SW2: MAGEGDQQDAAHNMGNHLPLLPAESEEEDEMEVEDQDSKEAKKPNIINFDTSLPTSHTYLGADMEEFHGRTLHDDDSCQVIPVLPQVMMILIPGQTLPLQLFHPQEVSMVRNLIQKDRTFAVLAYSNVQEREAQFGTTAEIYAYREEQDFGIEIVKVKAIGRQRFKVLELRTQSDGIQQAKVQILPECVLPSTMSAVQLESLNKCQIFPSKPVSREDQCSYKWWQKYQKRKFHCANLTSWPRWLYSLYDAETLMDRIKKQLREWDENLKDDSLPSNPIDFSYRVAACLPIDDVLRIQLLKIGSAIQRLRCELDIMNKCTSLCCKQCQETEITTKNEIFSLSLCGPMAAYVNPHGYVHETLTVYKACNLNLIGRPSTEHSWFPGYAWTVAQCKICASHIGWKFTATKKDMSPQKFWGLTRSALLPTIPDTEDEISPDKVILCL
UniProt Q9UKS7: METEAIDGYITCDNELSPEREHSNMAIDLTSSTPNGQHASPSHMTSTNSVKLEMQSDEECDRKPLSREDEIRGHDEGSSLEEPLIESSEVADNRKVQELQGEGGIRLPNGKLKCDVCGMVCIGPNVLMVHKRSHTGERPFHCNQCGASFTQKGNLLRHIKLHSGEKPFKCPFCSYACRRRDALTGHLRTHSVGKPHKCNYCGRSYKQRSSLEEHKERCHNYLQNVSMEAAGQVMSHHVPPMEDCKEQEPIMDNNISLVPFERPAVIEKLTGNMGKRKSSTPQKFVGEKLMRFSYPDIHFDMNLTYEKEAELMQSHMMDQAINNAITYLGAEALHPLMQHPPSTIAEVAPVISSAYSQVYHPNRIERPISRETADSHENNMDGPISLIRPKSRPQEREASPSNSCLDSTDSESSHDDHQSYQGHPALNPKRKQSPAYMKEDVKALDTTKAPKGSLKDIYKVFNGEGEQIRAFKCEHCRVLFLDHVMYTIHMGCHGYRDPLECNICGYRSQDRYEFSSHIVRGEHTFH

biological target: T1, CRBN and Helios (IKZF2) (Homo sapiens, UniProt Q96SW2+Q9UKS7); assay: TR-FRET dimerization assay (CRBN-IKZF2 ternary complex formation); format: binding; settings: at 667 nM; highly active >1.0, inactive <0.1
T1 construct: His (N); Strep (N)
Description: A focused library of imide analogs was synthesized and assessed for their ability to induce dimerization between CRBN and Helios in a time-resolved fluorescence energy transfer (TR-FRET) assay (FIG. 1A).
Prior to TR-FRET measurements being conducted, the reactions were incubated for 15 min at rt. […] The TR-FRET signal of each data point was extracted by calculating the 520/490 nm ratios. Data from single measurements (n=1), each calculated as an average of at least three technical replicates per well per experiment are presented in Table 1.
BODIPY-labeled CRBN in complex with Damage Specific DNA Binding Protein 1 (DDB1) harboring an internal deletion of the flexible BPB propeller (DDB1AB-CRBN) and in vitro biotinylated IKZF2 were treated with increasing concentrations of the indicated compounds in the presence of tracer amounts of Terbium-Streptavidin (Tb-SA). Compound-induced recruitment of IKZF2 to CRBN was quantified following the 520/490 TR-FRET ratio using a PHERAstar® plate reader (BMG) utilizing two synchronized PMTs to reduce background.

Row | Structure (SMILES) | TR-FRET in the dimerization assay
1 | Cc1ccc(NC(=O)Oc2cccc(NC3=CC(=O)N(C4CCC(=O)NC4=O)C3=O)c2)cc1Cl (stereo not drawn) [Compound 51, 3-((1-(2,6-dioxopiperidin-3-yl)-2,5-dioxo-2,5-dihydro-1H-pyrrol-3-yl)amino)phenyl (3-chloro-4-methylphenyl)carbamate] | < 0.1 A.U.
2 | Cc1ccc(NC(=O)CCc2cccc(NC3=CC(=O)N(C4CCC(=O)NC4=O)C3=O)c2)cc1Cl (stereo not drawn) [Compound 53, N-(3-chloro-4-methylphenyl)-3-(3-((1-(2,6-dioxopiperidin-3-yl)-2,5-dioxo-2,5-dihydro-1H-pyrrol-3-yl)amino)phenyl)propanamide] | > 1.0 A.U.
3 | Cc1ccc(NC(=O)NCc2cc(NC3=CC(=O)N(C4CCC(=O)NC4=O)C3=O)ccc2OC(=O)N(C)C)cc1Cl (stereo not drawn) [Compound 95, 2-((3-(3-chloro-4-methylphenyl)ureido)methyl)-4-((1-(2,6-dioxopiperidin-3-yl)-2,5-dioxo-2,5-dihydro-1H-pyrrol-3-yl)amino)phenyl Dimethylcarbamate] | < 0.1 A.U.
